These are yes or no findings as the source states them, for the method shown. In cells and extracts the contact can be indirect. Some binding calls cover weakened binding; strength is not graded here. Blank lines part the entries; values can stand above or below the substance they belong to.
Experiments:
[1] = biological target: inosine monophosphate dehydrogenase 2 (IMPDH2), endogenous (human (endogenous in KYSE450, KYSE30 and KYSE150)) (UniProt P12268); test: co-IP; endogenous IP: RIPA lysate shaken with the indicated antibody (1 uL) and protein A/G beads (60 uL) at 4 °C overnight, five washes with NET-NW buffer, Western blot
[2] = biological target: Myc-IMPDH2 (UniProt P12268); test: co-IP; external (exogenous) IP: RIPA lysate of transfected cells with tag beads (30 uL) in NET-NW buffer, five washes with NET-NW buffer, Western blot
[3] = biological target: Flag-USP5 (UniProt P45974); test: as above
[4] = biological target: ubiquitin-specific protease 5 (USP5), endogenous (human (endogenous in KYSE450 and KYSE30)) (UniProt P45974); test: co-IP; endogenous IP: RIPA lysate shaken with the indicated antibody (1 uL) and protein A/G beads (60 uL) at 4 °C overnight, five washes with NET-NW buffer, Western blot

Amino acid sequences for entries named in this document (tags omitted).
UniProt P45974: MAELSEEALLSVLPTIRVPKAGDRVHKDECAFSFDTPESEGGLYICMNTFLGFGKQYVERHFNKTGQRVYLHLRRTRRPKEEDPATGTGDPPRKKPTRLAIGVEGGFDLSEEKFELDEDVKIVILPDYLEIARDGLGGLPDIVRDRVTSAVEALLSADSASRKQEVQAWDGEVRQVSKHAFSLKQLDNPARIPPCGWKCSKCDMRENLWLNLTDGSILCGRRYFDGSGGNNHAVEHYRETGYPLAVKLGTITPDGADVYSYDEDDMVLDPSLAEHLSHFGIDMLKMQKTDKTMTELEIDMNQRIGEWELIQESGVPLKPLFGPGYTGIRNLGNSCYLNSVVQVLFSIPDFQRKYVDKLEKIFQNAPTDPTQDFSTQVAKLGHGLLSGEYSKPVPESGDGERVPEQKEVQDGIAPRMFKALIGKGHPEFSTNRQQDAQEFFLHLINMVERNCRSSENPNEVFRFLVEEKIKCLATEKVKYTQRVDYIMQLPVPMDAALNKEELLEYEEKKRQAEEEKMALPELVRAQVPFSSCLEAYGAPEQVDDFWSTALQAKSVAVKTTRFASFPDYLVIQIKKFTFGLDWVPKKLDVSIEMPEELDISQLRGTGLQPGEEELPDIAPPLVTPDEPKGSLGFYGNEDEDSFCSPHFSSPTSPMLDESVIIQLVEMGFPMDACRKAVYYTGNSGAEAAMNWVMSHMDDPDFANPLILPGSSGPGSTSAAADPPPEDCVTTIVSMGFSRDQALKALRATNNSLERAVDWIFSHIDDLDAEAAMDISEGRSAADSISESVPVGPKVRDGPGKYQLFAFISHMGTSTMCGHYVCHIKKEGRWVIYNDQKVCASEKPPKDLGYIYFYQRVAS

binding [1]: binds
Substance: E3 ligase SYVN1, endogenous (from UniProt Q86TM6 1-617) (enzyme)

binding [2]: binds
Substance: Flag-SYVN1 (from UniProt Q86TM6 1-617) (enzyme)

binding [3]: binds
Substance: Myc-IMPDH2 (from UniProt P12268 1-514) (enzyme)

binding [4]: binds
Substance: inosine monophosphate dehydrogenase 2 (IMPDH2), endogenous (from UniProt P12268 1-514) (enzyme)

— paper PMC13168492
